Data as given in PubChem BioAssay AID1259259 (Sanger Institute, 2017)

- Aim: 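Synthetic lethal kinase partners of anchor drugs in colorectal cancer cells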 (primary screen)
- Cells: SW1463 human colorectal cancer cells
- Reagents: siRNA pool against human genes
- Conditions: DMSO vehicle, or one anchor drug: BYL719 at 1 µM, cetuximab at 5 µg/ml, or trametinib at 10 nM
- Measured: 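Viability as fraction of control pool 2 (non-targeting), replicate mean; knock-down robust z-score without any drug; synergy score averaged for each anchor drug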
- Scale: robust z-score, knock-down alone: higher = more viable cells after knock-down; viability, knock-down alone: higher = more viable cells; synergy score with BYL719 and synergy score with cetuximab and synergy score with trametinib: higher = stronger synergy (synthetic lethal) with drug
- Call rule: 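a robust z-score under -3 for knock-down with no drug marks the gene as essential, meaning viability loss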
- Calls: active = essential: viability loss from knock-down alone; inactive = no change from knock-down alone
The whole screen tested 794 reagents; below is a random part of them. Over the whole deposit, 9 (1.1%) are marked active. 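Calls rest on knock-down alone, not drug synergy; viability values seem capped at 1.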 Not stated in the record: the amount of reagent, the time to read-out.

The first 2 records, to show the layout:
target gene	robust z-score, knock-down alone	viability, knock-down alone (fraction of control)	synergy score with BYL719	synergy score with cetuximab	synergy score with trametinib	Call
CIB2	0.41	0.954	0.187	0.217	0.176	inactive
AKT1	-0.225	0.913	-0.0868	0.133	-0.0741	inactive

Main list, repeating the preview:
target gene	robust z-score, knock-down alone	viability, knock-down alone (fraction of control)	synergy score with BYL719	synergy score with cetuximab	synergy score with trametinib	Call
CIB2	0.41	0.954	0.187	0.217	0.176	inactive
AKT1	-0.225	0.913	-0.0868	0.133	-0.0741	inactive
MAP3K6	-1.33	0.842	-0.0244	0.0684	0.0701	inactive
MAP2K7	-0.714	0.882	-0.0678	-0.0119	0.198	inactive
BPTF	-1.63	0.823	-0.111	0.0503	0.0658	inactive
CKM	1.12	1	0.0612	0.107	0.153	inactive
MARK2	-1.12	0.855	-0.0789	-0.0376	-0.0312	inactive
IKBKB	-0.111	0.921	0.0069	-0.0199	0.0125	inactive
PRKG1	1.13	1	0	0.051	0.0204	inactive
CMPK1	1.13	1	0.0738	0.13	0.16	inactive
GCK	-0.35	0.905	0.103	0.133	0.177	inactive
MAPK14	0.396	0.953	0.0718	0.145	0.122	inactive
STAG2	1.13	1	0	0.0217	0.0525	inactive
IP6K2	0.112	0.935	-0.0638	0.0641	0.00013	inactive
EXOSC10	-1.03	0.861	-0.125	0.163	-0.163	inactive
TBCK	1.08	0.997	0.0493	0.105	-0.0353	inactive
PSKH2	0.501	0.96	0.0721	0.0898	0.271	inactive
PKN1	0.445	0.956	0.00921	0.131	0.0293	inactive
AKT2	-0.0571	0.924	0.0645	-0.0398	0.252	inactive
DMPK	0.0331	0.93	-0.0148	-0.00664	-0.101	inactive
GALK2	-0.232	0.913	-0.0308	-0.0363	0.226	inactive
PKLR	-0.152	0.918	-0.00556	0.0856	-0.0805	inactive
GSK3B	1.13	1	0	0.176	0.128	inactive
MAP2K5	1.13	1	0.0048	-0.0272	-0.0326	inactive
NME4	-0.0552	0.924	-0.0148	0.0513	-0.106	inactive
EPHA2	-0.308	0.908	-0.092	-0.0188	-0.005	inactive
PANK3	0.962	0.989	-0.0106	-0.0375	0.00929	inactive
PRKCE	1.13	1	0.0544	0.136	0.287	inactive
CAMK2B	0.126	0.936	0.036	-0.0897	0.0172	inactive
NRK	-0.379	0.903	-0.044	-0.096	0.116	inactive
MYO3B	-0.575	0.891	-0.00292	-0.0189	-0.0286	inactive
PRKD3	-0.103	0.921	-0.0139	0.036	0.186	inactive
KCNH2	-1.06	0.86	0.0736	0.0824	-0.0536	inactive
GRK4	1.1	0.998	0.149	0.0448	0.0461	inactive
CNOT1	-2.11	0.792	0.00711	0.0984	0.0457	inactive
CEP290	1.13	1	0	0.00947	-0.0326	inactive
LTK	1.13	1	0.0452	0.208	0.0802	inactive
DUSP21	-1.23	0.849	-0.126	-0.169	-0.0691	inactive
EPHA7	1.13	1	0.0149	-0.0272	-0.0326	inactive
ERBB4	0.963	0.99	0.0832	0.0366	0.2	inactive
ZC3H11A	0.361	0.951	-0.0491	0.0373	-0.0671	inactive
SGK3	-0.335	0.906	0.0255	-0.0219	0.0405	inactive
PAK1	-0.882	0.871	0.0863	0.184	0.271	inactive
BCKDK	1.13	1	0	0.0901	0.0196	inactive
CAMK1G	-0.0342	0.925	-0.0607	0.078	-0.105	inactive
MAPK3	-1.14	0.854	-0.00973	-0.0362	0.0752	inactive
RPS6KB2	1.13	1	0	0.083	-0.0326	inactive
ITPK1	1.13	1	0	-0.0272	0.000753	inactive
NME1	0.465	0.958	-0.0425	0.0636	-0.0177	inactive
STKLD1	-1.19	0.851	0.0446	0.119	-0.0823	inactive
